{
  "source": "paper PMC7819943",
  "about": "“Rice protein-binding microarrays: a tool to detect cis-acting elements near promoter regions in rice”",
  "note": "The other results are listed elsewhere or left out.",
  "data": [
    {"target": "T1, OsSMF1 (Oryza sativa, UniProt Q6ZLB0 1-436)", "T1 sequence": "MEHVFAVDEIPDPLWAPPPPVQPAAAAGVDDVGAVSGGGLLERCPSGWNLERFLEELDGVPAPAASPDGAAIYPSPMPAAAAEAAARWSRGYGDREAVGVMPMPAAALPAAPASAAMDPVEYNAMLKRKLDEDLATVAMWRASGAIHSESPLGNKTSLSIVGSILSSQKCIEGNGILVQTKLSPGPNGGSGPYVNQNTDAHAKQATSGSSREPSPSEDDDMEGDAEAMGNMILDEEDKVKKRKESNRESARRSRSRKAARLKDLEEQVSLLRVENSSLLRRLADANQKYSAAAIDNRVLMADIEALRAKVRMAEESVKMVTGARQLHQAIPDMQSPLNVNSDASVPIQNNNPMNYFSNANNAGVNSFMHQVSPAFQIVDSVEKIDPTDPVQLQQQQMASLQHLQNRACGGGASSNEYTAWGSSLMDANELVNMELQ", "assay": "protein-binding microarray (RPBM); PBS, 2% BSA, 51.3 ng/ul salmon testes DNA, 50 uM zinc acetate, 200 nM TF, 25 C, 1 h; high values mean tight binding", "settings": "protein: recombinant; tags: N-terminal polyhistidine and DsRed monomer fusion (pET32a); chain copies: 2; label: CyDye5-dUTP incorporated in the synthesized complementary strand; 3' TTTTT single-stranded linker to array surface; dsDNA, one strand shown", "how_it_was_run": "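The binding signal is fluorescence intensity per array feature (arbitrary units). Readings came from an Axon 4000B scanner after a washed, 2% BSA-blocked, double-stranded custom Agilent array had been incubated for 1 h at 25 °C with 200 nM protein and 50 µM zinc acetate. The protein was a Ni–NTA-purified transcription factor fused N-terminally to polyhistidine and DsRed, expressed in E. coli BL21-CodonPlus.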", "values": [
      {"sequence": "GCGGCGCGGACGCGTGGGGCGTGAGGTGGACAGGTGGCGCCGGAGTCACCTAGTGCAG", "binding signal": "9260 fluorescence intensity (a.u.)"},
      {"sequence": "CACGAGACGTGTTCGTTCCTGCTCGGTCTCTGATCAGTTTCGGAGTCACCTAGTGCAG", "binding signal": "3360 fluorescence intensity (a.u.)"},
      {"sequence": "TAGATGGGCCTAAACCCAGCTAATATACGTGGAGGCCCATCGGAGTCACCTAGTGCAG", "binding signal": "3990 fluorescence intensity (a.u.)"},
      {"sequence": "GCCGTGACACGTGTCCCTCCCGTCCGCCGCTCCCGATTCCCGGAGTCACCTAGTGCAG", "binding signal": "26000 fluorescence intensity (a.u.)"},
      {"sequence": "AGAATCTGGAGGACGGGACTGGACAAACACGTAGGAGGAGCGGAGTCACCTAGTGCAG", "binding signal": "3380 fluorescence intensity (a.u.)"},
      {"sequence": "GACGAGGCTATCCAGCCCGGCCTACGAGGCTGCGCGTCACCGGAGTCACCTAGTGCAG", "binding signal": "4650 fluorescence intensity (a.u.)"},
      {"sequence": "CTCACTCCTAATTACTAAATATTCCACCTCAGCAATCTTCCGGAGTCACCTAGTGCAG", "binding signal": "11800 fluorescence intensity (a.u.)"},
      {"sequence": "AGCACACACGTTGCTGCCCCAACTCCAACTCTGCAACAAGCGGAGTCACCTAGTGCAG", "binding signal": "3280 fluorescence intensity (a.u.)"},
      {"sequence": "TTTGGCTGCCGACACGTCCCCTTGGTTGCAACAAACCTCTCGGAGTCACCTAGTGCAG", "binding signal": "5200 fluorescence intensity (a.u.)"},
      {"sequence": "GTGCCACGCAGTATCACTCTTGTCCTGTCGCCTTCGATTTCGGAGTCACCTAGTGCAG", "binding signal": "3240 fluorescence intensity (a.u.)"},
      {"sequence": "TGCTTCTATTGCTGCTATTGTTCTTGATCTATTGCTGCTACGGAGTCACCTAGTGCAG", "binding signal": "27500 fluorescence intensity (a.u.)"},
      {"sequence": "ATGTTGAATGTGGTAAGATTGTTGAATGTTCTGCAGATGTCGGAGTCACCTAGTGCAG", "binding signal": "3260 fluorescence intensity (a.u.)"},
      {"sequence": "ATAAAATTTTATGATATATAGATAATAATTTTACTTGCAACGGAGTCACCTAGTGCAG", "binding signal": "4550 fluorescence intensity (a.u.)"},
      {"sequence": "ACGGCCCAGATCACGCCACTGACGTGTACGCCCTGCCGTGCGGAGTCACCTAGTGCAG", "binding signal": "23100 fluorescence intensity (a.u.)"},
      {"sequence": "CTTCCTTTGCCTTGTCGGCGGCGATGGCGGCGTCGGCGTGCGGAGTCACCTAGTGCAG", "binding signal": "3810 fluorescence intensity (a.u.)"},
      {"sequence": "TCGGATTCCATGGCGAATTGGTGACTCGGTGGCAAGGTCCCGGAGTCACCTAGTGCAG", "binding signal": "3670 fluorescence intensity (a.u.)"},
      {"sequence": "CACTGCTTTGTTTGATTGTCAGTTGGTGTGCTTTCTTACCCGGAGTCACCTAGTGCAG", "binding signal": "10300 fluorescence intensity (a.u.)"},
      {"sequence": "GCGAAATCTGATGATACTTAGGGCAGTCACAATGCGTCACCGGAGTCACCTAGTGCAG", "binding signal": "4270 fluorescence intensity (a.u.)"},
      {"sequence": "ATTCAAAGGCATGCGAATGAGGTGGCATACCCTCAAATTTCGGAGTCACCTAGTGCAG", "binding signal": "5000 fluorescence intensity (a.u.)"},
      {"sequence": "GTTATCTTCAGGATGTCGATCTGCACGTCATCTCTATCATCGGAGTCACCTAGTGCAG", "binding signal": "9890 fluorescence intensity (a.u.)"},
      {"sequence": "CATACTCATTATTCCCGTCCACATGGTTTCATCTCGCCAGCGGAGTCACCTAGTGCAG", "binding signal": "3550 fluorescence intensity (a.u.)"},
      {"sequence": "CCTGACCAAAGACGTCATCCCCTGAATTTCCAGCACGCCACGGAGTCACCTAGTGCAG", "binding signal": "5390 fluorescence intensity (a.u.)"},
      {"sequence": "CGGCAGCCATGGAGAACGTCACCGGAGGAGGAGGAGGAGGCGGAGTCACCTAGTGCAG", "binding signal": "3610 fluorescence intensity (a.u.)"},
      {"sequence": "CATTCCTCTCTTTCCCCTCATCCCTATAAATCCAACATTTCGGAGTCACCTAGTGCAG", "binding signal": "3440 fluorescence intensity (a.u.)"},
      {"sequence": "AACGCAACGGCCGCGCCACGCCACGCCACGCGACGCGACCCGGAGTCACCTAGTGCAG", "binding signal": "8660 fluorescence intensity (a.u.)"},
      {"sequence": "GCTGCCAATCGATGACCGTGACAAGTCCTTCATAATCCTACGGAGTCACCTAGTGCAG", "binding signal": "9160 fluorescence intensity (a.u.)"},
      {"sequence": "GTATCTATCTGTCATCAGATTGACGTGGTACACAATTCTTCGGAGTCACCTAGTGCAG", "binding signal": "6090 fluorescence intensity (a.u.)"},
      {"sequence": "GAAAACGTCGCCGTTAATACAACTAGCCACGCTAGCCTGCCGGAGTCACCTAGTGCAG", "binding signal": "3550 fluorescence intensity (a.u.)"},
      {"sequence": "AACGGTTTATATGATGTGCTGCTGACTCACTCATTATTCTCGGAGTCACCTAGTGCAG", "binding signal": "21400 fluorescence intensity (a.u.)"},
      {"sequence": "GCTAACTCAATGTTGTATTAAATGTATACACACGTAACATCGGAGTCACCTAGTGCAG", "binding signal": "3260 fluorescence intensity (a.u.)"},
      {"sequence": "GTTGTTGTTGCAGTCCAGTCAGAGAGCAGAGGGCACTGCACGGAGTCACCTAGTGCAG", "binding signal": "3360 fluorescence intensity (a.u.)"},
      {"sequence": "AGGTTGACACGACGACGACGCGAGTCACACGACGCGACAGCGGAGTCACCTAGTGCAG", "binding signal": "4440 fluorescence intensity (a.u.)"},
      {"sequence": "GCTCTGAATATTCCTATGATTACAAATAGCAGGGTATCAACGGAGTCACCTAGTGCAG", "binding signal": "3390 fluorescence intensity (a.u.)"},
      {"sequence": "AGCGACAGGGCGACCTCGGCACCGCACGCCATGGATTGACCGGAGTCACCTAGTGCAG", "binding signal": "3150 fluorescence intensity (a.u.)"},
      {"sequence": "AGTTTGAAAACCCACCGCCACGTCGCCGCCGCCGCCGCCGCGGAGTCACCTAGTGCAG", "binding signal": "8870 fluorescence intensity (a.u.)"},
      {"sequence": "TTCACACGCACCGTCTCACCTGACGTGGCGAGACAACACTCGGAGTCACCTAGTGCAG", "binding signal": "19100 fluorescence intensity (a.u.)"},
      {"sequence": "TGGGCGGCACTCGCTGATGTCCACATCAGTGACCAATAAGCGGAGTCACCTAGTGCAG", "binding signal": "4110 fluorescence intensity (a.u.)"},
      {"sequence": "GATGAGTAGACCAAAGCGACCGCGCTCATGACATCTACAGCGGAGTCACCTAGTGCAG", "binding signal": "3540 fluorescence intensity (a.u.)"},
      {"sequence": "GTGAGCGTGAGCTTTTAGACCTTACCATTCTATGAGATATCGGAGTCACCTAGTGCAG", "binding signal": "20700 fluorescence intensity (a.u.)"},
      {"sequence": "GAGGAGGCGCTGGATGACGCGATCGCGTTCGCGAGGCACCCGGAGTCACCTAGTGCAG", "binding signal": "5000 fluorescence intensity (a.u.)"},
      {"sequence": "TTAAATTCTAGTACCCATTTCTCGGGTGAGGATCCTCTACCGGAGTCACCTAGTGCAG", "binding signal": "32800 fluorescence intensity (a.u.)"},
      {"sequence": "GAGCTCCACCTCCTCGCGTGCCCACGCCATCCATGGCTTCCGGAGTCACCTAGTGCAG", "binding signal": "4500 fluorescence intensity (a.u.)"}
    ]}
  ]
}
